Here are results for 39 compounds from PubChem BioAssay AID2685 (National Center for Advancing Translational Sciences (NCATS), 2010).

The other results are listed elsewhere or left out. The main result of the screen is listed elsewhere. These columns were measured beside it and carry no call. The list favours compounds with an active or inconclusive main result. Potencies come from curve fits of mixed quality, noted in brackets.

A short description of this test: qHTS Assay for Lipid Storage Modulators in Drosophila S3 Cells.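 As to cell number change: cells counted by Cell Tracker Red CMTPX staining in the red channel.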 The settings on record: BODIPY lipid droplet fluorescence, 18-24 h; for cell number change: measured here: cell count max response, cells fed with added oleic acid. The gist of the method: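 Drosophila S3 cells loaded with oleic acid (400 uM, as added) and compounds at several concentrations; lipid droplets imaged by 488-nm laser-scanning cytometry, 500–530 nm intensity and object ratio to cell channel. Percent activity normalized to 20 uM Triacsin C.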
A general note: Quantitative high-throughput screening tests each substance at several concentrations.

Where [1] appears, read: measured here: cell number channel AC50, cells fed with added oleic acid.
The mark [2] stands for this setting: measured here: lipid fluorescence (Fed channel) AC50, cells fed with added oleic acid.

What is called AC50 is the concentration at which the activity in the assay is half-maximal. A low value points to greater potency. For the compound `COc1ccc(-c2cc(-c3cccs3)nc(OC)c2C#N)cc1OC`, the cell number change is -35.6%. Moreover, the concentration at half-maximal activity (AC50) under setting [1] is 14.6 µM [falling, single point]. In addition, the AC50 under setting [2] was 14.6 µM [falling, single point].
As for `CNCCCNCc1ccc(SC)cc1`, the cell number change was -20.1%. The concentration at half-maximal activity (AC50) under setting [2] was 3.66 µM [falling, partial curve, poor fit].
Turning to `COc1cccc(C(=O)Nc2cccc(C(=O)N3CCOCC3)c2)c1`, the cell number change is -64.1%. Further, the AC50 under setting [1] was 20.6 µM [falling, partial curve]. Besides, under setting [2], the half-maximal activity concentration (AC50) is 20.6 µM [falling, partial curve].
As for `Cc1c(NC(=O)c2ccc(Br)s2)c(=O)n(-c2ccccc2)n1C`, the cell number change was -3.95%. Besides, under setting [2], the AC50 is 29.1 µM [falling, single point].
Take `Cc1ccc(OCC(=O)NNC(=O)Cn2c(=O)cnc3ccccc32)cc1`: the cell number change stood at 15.2%. In addition, the AC50 under setting [2] was 0.0164 µM [rising, full curve, poor fit].
Consider `Cc1ccc(NC(=O)C(C)OC(=O)c2ccc(Cl)nc2)cc1S(=O)(=O)N1CCOCC1` (stereo not given), for which the AC50 under setting [2] was 2.31 µM [falling, partial curve].
As to `Cc1nc(-c2cccc(NC(=O)c3ccco3)c2)cs1`, the cell number change was -7.8%. Besides, the AC50 under setting [2] was 29.1 µM [falling, partial curve, poor fit].
As to `CCNc1nc2nonc2nc1NCC`, the cell number change stood at 5.91%. Moreover, the half-maximal activity concentration (AC50) under setting [1] was 0.00461 µM [falling, full curve, poor fit].
As for `Cc1csc(SCc2nnc(-c3ccc(Cl)cc3)o2)n1`, the cell number change is 250%. Also, under setting [1], the half-maximal activity concentration (AC50) was 25.9 µM [rising, single point]. Further, the AC50 under setting [2] is 23.1 µM [rising, partial curve].
In the case of `O=C(Nc1cnn(Cc2c(Cl)cccc2Cl)c1)c1ccc([N+](=O)[O-])cc1`, the cell number change was -5.33%. For the same compound, the concentration at half-maximal activity (AC50) under setting [2] was 0.411 µM [falling, single point].
For `Clc1ncccc1-c1nnn(-c2ccccc2Br)n1`, the cell number change is 9.4%. Besides, the AC50 under setting [2] is 0.651 µM [rising, single point].
As to `COc1ccc(N2CCN(Cc3oc(CO)cc(=O)c3O)CC2)cc1`, the cell number change is -14.9%. Moreover, under setting [2], the concentration at half-maximal activity (AC50) is 0.116 µM [falling, full curve, poor fit].
On to `CC1Cn2c(nc3c2c(=O)[nH]c(=O)n3C)O1` (stereo not given), for which the cell number change was found to be 1.07%. For the same compound, under setting [2], the AC50 is 7.31 µM [rising, single point].
Regarding `CC1CN(S(=O)(=O)c2cccc(C(=O)N(CCc3ccccc3)Cc3ccccc3)c2)CC(C)O1` (stereo not given), the cell number change is -16.6%.
Turning to `CCC(C)c1ccc(NC(=O)C/C(C)=N/NC(=O)c2cnccn2)cc1` (stereo not given), the cell number change was 4.58%. Further, the AC50 under setting [2] was 23.1 µM [rising, single point].
In the case of `O=C(NCc1ccc(Cl)cc1)c1ccc2ccccc2n1`, the cell number change came out at 27.5%. In addition, the AC50 under setting [2] was 1.84 µM [rising, partial curve].
In the case of `O=C(CC1SC(=Nc2ccccc2)N(CCCO)C1=O)Nc1ccc(Cl)cc1` (stereo not given), the cell number change worked out at 9.68%. For the same compound, under setting [1], the AC50 was 6.51 µM [rising, single point].
With `Cc1cccc(C)c1NC(=S)NC(=O)c1ccccc1F`, the cell number change is 5.49%.
`COc1cc(O)c(C(CCN2CCCC2)c2ccc3c(c2)OCO3)c(OC)c1` (stereo not given): the cell number change was 15.3%. The AC50 under setting [2] is 29.1 µM [rising, single point].
Regarding `O=C(CN1CCCCC1)NC(=O)NC1CCCC1`, the cell number change is -34%. Moreover, under setting [1], the half-maximal activity concentration (AC50) was 7.31 µM [falling, partial curve, poor fit]. For the same compound, the AC50 under setting [2] was 16.4 µM [falling, partial curve].
On to `Cc1cccc(N2CCN(S(=O)(=O)c3cnc[nH]3)CC2)c1C`, for which the cell number change is -24.2%. The AC50 under setting [1] was 4.11 µM [falling, partial curve]. Besides, under setting [2], the AC50 was 0.103 µM [falling, full curve, poor fit].
For `Cc1ccc2c(c1)N(C)/C(=C/c1cccc[n+]1CCO)S2`, the cell number change is -7.8%. The AC50 under setting [1] was 2.91 µM [rising, single point].
Take `COc1cc(/C=N/n2c(C)n[nH]c2=S)ccc1OCc1ccccc1`: the cell number change was -50.6%. In addition, the AC50 under setting [1] is 0.058 µM [falling, full curve]. In addition, the AC50 under setting [2] is 6.51 µM [rising, partial curve].
In the case of `Cc1ccc(-n2cc(-c3ccccc3)c3c(NN4CCOCC4)ncnc32)cc1`, the AC50 under setting [2] was 6.51 µM [rising, single point].
As for `CC1=C(C)C(=O)C(N2CCOCC2)=CC1=O`, the cell number change is -21.8%. The AC50 under setting [2] is 14.6 µM [falling, single point].
For `CCC(C)NC(=O)NC(=O)CSc1nnc(-c2ccccc2F)n1C1CC1` (stereo not given), the cell number change was determined as 8.33%. Also, under setting [2], the AC50 is 0.0058 µM [rising, full curve, poor fit].
Regarding `Cc1ccc(-c2csc3ncnc(NCCN4CCOCC4)c23)cc1`, the cell number change is -17.9%. For the same compound, the AC50 under setting [2] is 0.231 µM [rising, single point].
As for `CCOC(=O)C1C(c2ccc(OC)cc2)N(C)OC1(O)C(F)(F)F` (stereo not given), the cell number change is -36.6%.
Consider `CCOc1ccc(S(=O)(=O)Nc2ccc(C(=O)NCC3CCCO3)cc2)cc1` (stereo not given), for which the cell number change stood at 10.8%. In addition, the half-maximal activity concentration (AC50) under setting [2] is 13 µM [rising, partial curve, poor fit].
As for `COc1ccc(Cl)cc1NS(=O)(=O)c1ccc(S(=O)(=O)N2CCCC2)cc1`, the AC50 was 1.84 µM [falling, partial curve, poor fit] under setting [1] and 6.51 µM [falling, single point] under setting [2].
On to `CN(C)c1ccc(C2CC(c3ccccc3)=Nc3nc(-c4ccccc4)cn32)cc1` (stereo not given), for which the cell number change was 7.94%. Moreover, under setting [2], the AC50 is 0.231 µM [rising, full curve, poor fit].
`C#CCOCCOCCOCCNc1nc(N2CCN(C(=O)Cn3cc(CCCN=C(N)N)nn3)CC2)nc(N2CCN(C(=O)[C@H]([C@@H](C)O)n3cc(CCCCN)nn3)CC2)n1`: the cell number change is -5.68%. Besides, the AC50 under setting [2] is 29.1 µM [rising, partial curve].
With `COc1ccc(NC(=O)/C(=C\c2ccccc2)NC(=O)c2ccco2)cc1`, the cell number change amounted to 8.57%.
On the same count and under the same terms, the same measure for `CCOc1ccc(C(C)=O)cc1COC(=O)c1cccnc1SC`: 39.2%; for `Cc1ccc(C)c(NC(=O)C(=O)NCc2ccccn2)c1`: 3.1%; for `CCN(Cc1nc(-c2ccc(OC)cc2)no1)C(=O)c1ccoc1C`: 13.9%.
As for `COc1ccccc1N1CCN(C(=O)c2ccccc2Oc2ccccc2)CC1`, the cell number change was -6.08%.
Turning to `CCOc1ccc(N(CC(=O)Nc2cc(C)ccc2C)S(=O)(=O)c2c(C)[nH]c(=O)[nH]c2=O)cc1`, the cell number change is -26.8%. In addition, under setting [2], the AC50 is 29.1 µM [falling, single point].
Consider `O=C(O)CN1C(=O)C2C3CC(C2C1=O)C1C(c2ccc(F)cc2)c2sc(=O)[nH]c2SC31` (stereo not given), for which the cell number change is -50.1%. For the same compound, the AC50 under setting [1] is 16.4 µM [falling, single point]. The AC50 under setting [2] is 18.4 µM [falling, single point].
